Assay results from article PMC7059380, “In vivo visualization of the i-motif DNA secondary structure in the Bombyx mori testis”.
For at least one entry, the source does not settle the construct or the ends of the probe. A negative result means that nothing was seen under these conditions. Where a protein sequence is shown, tags need not be part of it.

Biological target: T1, BmILF (Bombyx mori) (UniProt A0A1U9WZ16)
T1 sequence (looked up, limits assumed): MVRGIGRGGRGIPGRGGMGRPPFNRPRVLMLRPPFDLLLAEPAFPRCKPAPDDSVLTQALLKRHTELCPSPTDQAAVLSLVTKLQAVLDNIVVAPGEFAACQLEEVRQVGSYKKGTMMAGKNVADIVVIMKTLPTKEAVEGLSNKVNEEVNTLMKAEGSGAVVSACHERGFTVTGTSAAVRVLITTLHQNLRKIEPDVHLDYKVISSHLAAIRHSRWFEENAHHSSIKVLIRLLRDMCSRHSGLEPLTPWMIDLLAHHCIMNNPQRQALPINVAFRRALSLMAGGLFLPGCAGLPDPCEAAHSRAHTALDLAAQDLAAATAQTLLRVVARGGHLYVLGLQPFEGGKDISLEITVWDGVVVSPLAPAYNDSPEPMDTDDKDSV
Test: EMSA
Conditions: EMSA: 20 ul, 2.5% glycerol, 0.05% NP-40, 5 mM MgCl2, 4 mM EDTA, RT 20 min; probes folded in 50 mM Tris-TAE pH 4.0 (also 6.0, 8.0); recombinant protein; label: 5' biotin

Sequence	binding result
CCCCGCGCCCCCCGCGTCCCCCGCACCCCC (double strand) [BGIBMGA003213 dsDNA]	no binding
TTGTTGCCCCGCCCCTCGGCCCCCTCGCGCCCCGCACTGG (double strand) [BmPOUM2 dsDNA]	no binding
